Residue numbers refer to the chain shown, from its start. These are yes or no findings as the source states them, for the method shown. In cells and extracts the contact can be indirect. Some binding calls cover weakened binding; strength is not graded here. Sequences can lack the tags named with a protein.
Tests used:
Assay in all cases: co-IP
[1] = target: T1, MTBP wild type, C-terminally tagged (3xFlag-TEV2-GFP) (UniProt Q96DY7)
T1 sequence: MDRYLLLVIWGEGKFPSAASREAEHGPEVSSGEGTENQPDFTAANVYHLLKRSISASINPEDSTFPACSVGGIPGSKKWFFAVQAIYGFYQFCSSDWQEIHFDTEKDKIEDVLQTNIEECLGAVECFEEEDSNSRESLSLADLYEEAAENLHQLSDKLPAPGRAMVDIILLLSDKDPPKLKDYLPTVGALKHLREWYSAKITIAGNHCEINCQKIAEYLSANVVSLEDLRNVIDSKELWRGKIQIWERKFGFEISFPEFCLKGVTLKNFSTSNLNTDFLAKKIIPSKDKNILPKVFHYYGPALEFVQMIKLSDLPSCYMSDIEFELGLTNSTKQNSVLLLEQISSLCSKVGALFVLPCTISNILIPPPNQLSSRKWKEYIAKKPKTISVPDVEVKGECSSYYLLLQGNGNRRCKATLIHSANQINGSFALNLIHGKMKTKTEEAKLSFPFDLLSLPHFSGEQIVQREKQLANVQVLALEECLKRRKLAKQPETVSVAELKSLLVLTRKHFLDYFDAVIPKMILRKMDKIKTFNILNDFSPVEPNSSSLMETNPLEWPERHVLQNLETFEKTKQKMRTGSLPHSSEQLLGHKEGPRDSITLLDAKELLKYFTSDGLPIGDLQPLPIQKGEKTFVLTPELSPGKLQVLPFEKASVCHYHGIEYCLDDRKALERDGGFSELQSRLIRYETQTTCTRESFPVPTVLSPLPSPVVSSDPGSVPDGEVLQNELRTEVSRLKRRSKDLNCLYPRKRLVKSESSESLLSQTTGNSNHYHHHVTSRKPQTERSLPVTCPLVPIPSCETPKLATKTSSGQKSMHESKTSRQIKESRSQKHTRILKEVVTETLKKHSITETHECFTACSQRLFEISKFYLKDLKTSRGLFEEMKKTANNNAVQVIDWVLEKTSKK

Chains of the proteins cited; added tags and fusions are not shown. Lines headed by an entry give the natural chain unless they say otherwise; changes in a name come on top.
UniProt P49336: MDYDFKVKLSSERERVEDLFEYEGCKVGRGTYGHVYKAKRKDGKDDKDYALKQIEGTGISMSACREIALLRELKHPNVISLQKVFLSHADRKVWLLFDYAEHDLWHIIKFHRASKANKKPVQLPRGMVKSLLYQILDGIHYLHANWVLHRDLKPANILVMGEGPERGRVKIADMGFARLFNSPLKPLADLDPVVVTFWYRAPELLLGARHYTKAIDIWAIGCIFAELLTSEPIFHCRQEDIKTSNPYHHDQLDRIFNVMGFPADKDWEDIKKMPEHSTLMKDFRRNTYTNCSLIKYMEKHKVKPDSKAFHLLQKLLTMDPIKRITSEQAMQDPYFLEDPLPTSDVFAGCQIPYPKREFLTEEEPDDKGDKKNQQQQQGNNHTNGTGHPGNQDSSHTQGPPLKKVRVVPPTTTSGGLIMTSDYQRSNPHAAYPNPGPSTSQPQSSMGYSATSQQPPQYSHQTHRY

[2] = target: T2, MTBP-1D, single point mutant, C-terminally tagged (3xFlag-TEV2-GFP) (UniProt Q96DY7)
T2 sequence: T1 sequence with T687D

[3] = target: T3, MTBP-7pm, seven point mutant, C-terminally tagged (3xFlag-TEV2-GFP) (UniProt Q96DY7)
T3 sequence: T1 sequence with L620D, P622D, L623D, F632A, V633D, L634D, T635A

Which results are given for “CDK8/CCNC kinase (from UniProt P49336 1-464; P24863 1-283) (complex)”?
binding [1]: binds; binding [2]: no binding; binding [3]: no binding

Reference: paper doi:10.64898/2025.12.09.692982
